Some results were stated once for a whole list of compounds, not compound by compound.
Test system: differentiated HL-60 cells
Assay: Induction of cell migration in differentiated HL-60 cells
Format: cell-based
Conditions: two hours, FIG. 5

SMILES: CC(C)(C)c1cc(/C=[N+](\[O-])C(C)(C)C)cc(C(C)(C)C)c1O [Compound 1, α-(4-hydroxy-3,5-di-tert-butylphenyl)-N-tert-butylnitrone]
- induction of cell migration: induced significant migration

SMILES: CC(C)(C)/[N+]([O-])=C/c1cc(-c2ccccc2)c(O)c(-c2ccccc2)c1 [Compound 2]
- induction of cell migration: induced significant migration

SMILES: CC(C)(C)/[N+]([O-])=C/c1ccc(O)cc1 [Compound 3]
- induction of cell migration: induced significant migration

SMILES: CC(C)(C)c1cc(/C=[N+](\[O-])C(C)(C)C)ccc1O [Compound 4]
- induction of cell migration: induced significant migration

SMILES: CC(C)(C)c1cc(/C=[N+](\[O-])C(C)(C)C)c(O)c(C(C)(C)C)c1 [Compound 5]
- induction of cell migration: induced significant migration

SMILES: Cc1cccc(/C=[N+](\[O-])C(C)(C)C)c1O [Compound 6]
- induction of cell migration: induced significant migration

— US20050215646A1, “Methods for treating multiple sclerosis and pharmaceutical compositions therefor” (Renovis, Inc., priority 2004, published 2005)
